Measurements taken from publication PMC13035910, “Dbf4-dependent kinase finetunes Ino80 function at chromosome replication origins” (Nature Communications, 2026).
Results are given in words; binding and its absence hold for the method and conditions named. Some results given as binding are weak or reduced against the parent protein; the word gives no strength.

Amino acid sequences for entries named in this document (tags omitted). A change or cut given only in a name is not applied to a line headed by its entry.
UniProt P06243: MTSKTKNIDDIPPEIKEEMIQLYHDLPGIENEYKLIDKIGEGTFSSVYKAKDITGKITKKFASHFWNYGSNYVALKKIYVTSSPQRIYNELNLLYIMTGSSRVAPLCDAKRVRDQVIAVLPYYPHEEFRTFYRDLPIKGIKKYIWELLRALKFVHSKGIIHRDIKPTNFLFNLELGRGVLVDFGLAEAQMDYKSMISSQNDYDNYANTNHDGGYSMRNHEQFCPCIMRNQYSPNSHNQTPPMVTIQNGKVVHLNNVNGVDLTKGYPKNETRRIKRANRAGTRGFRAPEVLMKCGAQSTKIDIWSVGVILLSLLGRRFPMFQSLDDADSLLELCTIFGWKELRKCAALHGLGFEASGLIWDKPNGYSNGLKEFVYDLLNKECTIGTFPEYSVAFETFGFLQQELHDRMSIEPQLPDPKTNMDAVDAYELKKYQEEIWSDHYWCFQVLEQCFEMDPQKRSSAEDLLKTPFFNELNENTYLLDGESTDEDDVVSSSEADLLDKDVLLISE
UniProt P32325: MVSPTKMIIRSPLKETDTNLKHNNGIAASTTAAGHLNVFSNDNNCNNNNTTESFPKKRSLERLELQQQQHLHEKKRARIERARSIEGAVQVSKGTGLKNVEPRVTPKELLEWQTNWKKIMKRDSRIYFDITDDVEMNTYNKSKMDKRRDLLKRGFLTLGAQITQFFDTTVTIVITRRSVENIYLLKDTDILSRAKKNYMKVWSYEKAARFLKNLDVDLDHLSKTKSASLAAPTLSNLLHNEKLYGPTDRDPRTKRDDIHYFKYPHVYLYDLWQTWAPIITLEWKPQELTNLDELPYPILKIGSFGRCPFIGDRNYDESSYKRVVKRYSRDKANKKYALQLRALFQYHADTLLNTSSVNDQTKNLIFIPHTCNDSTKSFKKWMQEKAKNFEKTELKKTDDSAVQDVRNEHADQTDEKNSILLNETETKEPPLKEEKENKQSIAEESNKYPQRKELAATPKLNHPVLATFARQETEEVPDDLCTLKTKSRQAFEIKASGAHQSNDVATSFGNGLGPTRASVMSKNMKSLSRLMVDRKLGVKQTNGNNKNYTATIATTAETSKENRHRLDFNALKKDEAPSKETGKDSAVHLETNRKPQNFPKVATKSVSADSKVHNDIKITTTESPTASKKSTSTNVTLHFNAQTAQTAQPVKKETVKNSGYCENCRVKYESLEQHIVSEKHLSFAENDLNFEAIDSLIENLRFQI
UniProt P53115: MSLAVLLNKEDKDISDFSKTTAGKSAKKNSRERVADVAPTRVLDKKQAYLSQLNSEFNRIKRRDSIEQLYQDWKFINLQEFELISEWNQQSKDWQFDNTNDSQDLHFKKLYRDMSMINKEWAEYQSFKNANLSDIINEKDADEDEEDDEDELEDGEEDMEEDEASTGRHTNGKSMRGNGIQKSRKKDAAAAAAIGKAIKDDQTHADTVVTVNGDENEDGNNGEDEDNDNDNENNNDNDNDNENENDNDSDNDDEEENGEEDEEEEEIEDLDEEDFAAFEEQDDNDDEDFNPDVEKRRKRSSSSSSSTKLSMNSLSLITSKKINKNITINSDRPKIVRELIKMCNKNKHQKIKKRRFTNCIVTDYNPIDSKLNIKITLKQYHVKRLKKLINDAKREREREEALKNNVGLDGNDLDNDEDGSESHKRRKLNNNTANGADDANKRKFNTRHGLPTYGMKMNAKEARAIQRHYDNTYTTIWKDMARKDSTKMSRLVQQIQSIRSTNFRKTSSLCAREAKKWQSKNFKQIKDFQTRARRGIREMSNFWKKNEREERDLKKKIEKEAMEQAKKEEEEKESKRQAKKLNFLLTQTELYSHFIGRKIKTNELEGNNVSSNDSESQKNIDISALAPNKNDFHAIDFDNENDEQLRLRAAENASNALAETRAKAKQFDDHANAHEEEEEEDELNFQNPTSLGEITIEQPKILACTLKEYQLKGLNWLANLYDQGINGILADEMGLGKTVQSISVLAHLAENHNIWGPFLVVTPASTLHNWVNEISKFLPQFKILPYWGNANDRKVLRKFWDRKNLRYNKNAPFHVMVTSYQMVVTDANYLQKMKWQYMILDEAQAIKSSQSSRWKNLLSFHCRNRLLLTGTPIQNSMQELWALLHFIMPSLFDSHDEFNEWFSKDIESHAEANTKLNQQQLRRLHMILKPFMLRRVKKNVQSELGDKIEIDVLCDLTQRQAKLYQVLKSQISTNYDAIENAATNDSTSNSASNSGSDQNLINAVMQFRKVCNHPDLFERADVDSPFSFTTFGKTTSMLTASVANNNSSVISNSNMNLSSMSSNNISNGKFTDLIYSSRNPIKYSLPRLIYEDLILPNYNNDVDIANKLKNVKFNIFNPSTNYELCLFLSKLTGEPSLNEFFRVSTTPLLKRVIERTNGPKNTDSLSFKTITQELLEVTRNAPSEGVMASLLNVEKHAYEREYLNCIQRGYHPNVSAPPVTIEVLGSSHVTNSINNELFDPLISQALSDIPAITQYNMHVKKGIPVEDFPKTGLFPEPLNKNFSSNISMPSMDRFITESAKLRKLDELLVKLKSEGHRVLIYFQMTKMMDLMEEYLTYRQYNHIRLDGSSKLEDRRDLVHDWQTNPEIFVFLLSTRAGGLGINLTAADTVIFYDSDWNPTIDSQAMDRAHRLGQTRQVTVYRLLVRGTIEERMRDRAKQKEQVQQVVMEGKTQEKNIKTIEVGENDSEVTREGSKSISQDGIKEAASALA

Molecular target: Dbf4-Dependent Kinase (DDK) (yeast) (UniProt P06243+P32325)
Experiment: pull-down; the paper calls it Co-IP: 100 nM INO80 and 150 nM DDK incubated 1 h in 100 mM potassium-glutamate, 25 mM HEPES-KOH pH 7.6, 10 mM Mg(OAc)2, 0.02% NP-40, 1 mM DTT, 10 mM ATP; bound to calmodulin affinity resin with 2 mM CaCl2 at room temperature; eluted with 3 mM EGTA; immunoblot with anti-FLAG and anti-CBP; both purified

INO80 chromatin remodelling complex (wild type) (from UniProt P53115 1-1489; Q03435 1-203; P43579 1-692; Q12345 1-250; P40060 1-125; P80428 1-489; Q12386 1-881; P60010 1-375; P35189 1-244; Q08561 1-116; Q03940 1-463; Q12464 1-471; P53946 1-755; P40154 1-320; P32617 1-166)
binding: binds
